Measured values: PMC9768165
These are yes or no findings as the source states them, for the method shown. In cells and extracts the contact can be indirect. Some results given as binding are weak or reduced against the parent protein; the word gives no strength.

Protein sequences, listed by entry. Tags and fused reporters are not part of them. Lines headed by an entry give the natural chain unless they say otherwise; changes in a name come on top. Chains listed by the source or under a name are the forms on record and can include a tag or linker.
UniProt P35222: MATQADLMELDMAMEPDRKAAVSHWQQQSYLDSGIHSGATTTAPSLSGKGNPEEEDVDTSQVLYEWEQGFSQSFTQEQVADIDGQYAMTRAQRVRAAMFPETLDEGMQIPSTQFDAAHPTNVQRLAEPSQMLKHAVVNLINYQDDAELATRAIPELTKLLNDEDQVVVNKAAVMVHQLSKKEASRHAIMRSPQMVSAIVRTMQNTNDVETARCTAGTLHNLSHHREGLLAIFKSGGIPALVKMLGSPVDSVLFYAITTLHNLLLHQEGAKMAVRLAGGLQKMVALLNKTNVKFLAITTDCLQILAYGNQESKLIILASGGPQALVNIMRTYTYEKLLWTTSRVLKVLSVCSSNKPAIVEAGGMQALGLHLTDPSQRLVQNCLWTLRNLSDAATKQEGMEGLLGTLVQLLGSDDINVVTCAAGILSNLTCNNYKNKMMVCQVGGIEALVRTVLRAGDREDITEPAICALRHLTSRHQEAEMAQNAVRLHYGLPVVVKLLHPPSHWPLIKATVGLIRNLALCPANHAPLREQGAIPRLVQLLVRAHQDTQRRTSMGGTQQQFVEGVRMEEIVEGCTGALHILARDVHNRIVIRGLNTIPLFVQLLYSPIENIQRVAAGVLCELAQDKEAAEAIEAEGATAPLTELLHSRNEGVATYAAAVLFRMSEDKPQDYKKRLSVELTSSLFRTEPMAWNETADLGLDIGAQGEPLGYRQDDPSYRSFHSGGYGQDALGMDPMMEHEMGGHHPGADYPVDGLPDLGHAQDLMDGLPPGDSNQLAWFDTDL
β-catenin-4A mutant (S33/S37/T41/S45) (P35222, form named): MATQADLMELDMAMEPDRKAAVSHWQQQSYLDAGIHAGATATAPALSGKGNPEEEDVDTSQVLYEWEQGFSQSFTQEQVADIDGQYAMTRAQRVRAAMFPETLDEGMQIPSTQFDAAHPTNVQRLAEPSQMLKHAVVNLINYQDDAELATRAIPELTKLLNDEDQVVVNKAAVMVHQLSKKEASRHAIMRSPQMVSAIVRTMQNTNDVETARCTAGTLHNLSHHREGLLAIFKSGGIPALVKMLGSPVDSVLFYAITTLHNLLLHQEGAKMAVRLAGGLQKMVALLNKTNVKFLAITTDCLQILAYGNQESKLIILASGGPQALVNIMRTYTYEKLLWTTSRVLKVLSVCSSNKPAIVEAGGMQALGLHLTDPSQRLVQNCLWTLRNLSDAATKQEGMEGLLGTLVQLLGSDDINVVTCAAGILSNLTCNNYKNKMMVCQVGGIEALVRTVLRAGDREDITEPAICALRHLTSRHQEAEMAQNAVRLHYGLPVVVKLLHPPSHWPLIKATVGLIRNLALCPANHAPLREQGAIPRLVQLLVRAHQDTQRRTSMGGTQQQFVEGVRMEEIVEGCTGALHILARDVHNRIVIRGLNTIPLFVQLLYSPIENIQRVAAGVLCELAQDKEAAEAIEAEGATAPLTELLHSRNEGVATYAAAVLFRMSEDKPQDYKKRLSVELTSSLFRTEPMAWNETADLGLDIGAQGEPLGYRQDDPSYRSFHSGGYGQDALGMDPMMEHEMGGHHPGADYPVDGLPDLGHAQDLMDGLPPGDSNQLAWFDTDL
UniProt O43524: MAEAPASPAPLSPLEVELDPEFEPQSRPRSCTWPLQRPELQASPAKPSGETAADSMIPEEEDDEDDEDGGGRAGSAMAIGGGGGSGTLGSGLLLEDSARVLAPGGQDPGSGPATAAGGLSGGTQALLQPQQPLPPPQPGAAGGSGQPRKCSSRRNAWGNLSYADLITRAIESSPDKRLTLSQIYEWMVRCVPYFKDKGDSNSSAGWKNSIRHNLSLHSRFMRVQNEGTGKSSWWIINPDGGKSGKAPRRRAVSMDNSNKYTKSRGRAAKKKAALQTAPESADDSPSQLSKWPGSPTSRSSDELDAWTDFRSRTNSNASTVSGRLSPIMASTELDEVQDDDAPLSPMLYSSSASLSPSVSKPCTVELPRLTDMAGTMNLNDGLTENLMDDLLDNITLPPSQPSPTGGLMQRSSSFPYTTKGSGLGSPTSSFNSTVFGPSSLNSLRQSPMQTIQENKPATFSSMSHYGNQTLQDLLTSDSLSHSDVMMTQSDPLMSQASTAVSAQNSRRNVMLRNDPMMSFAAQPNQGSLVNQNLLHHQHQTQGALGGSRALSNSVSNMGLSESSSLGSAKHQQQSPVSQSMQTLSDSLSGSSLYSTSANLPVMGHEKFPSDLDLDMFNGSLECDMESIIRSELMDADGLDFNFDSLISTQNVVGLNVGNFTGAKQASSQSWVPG

What was measured:
[1] = biological target: β-catenin-4A mutant (S33/S37/T41/S45) (UniProt P35222); assay: co-IP; nuclear fraction of HK-2 cells transfected with β-catenin-4A mutant plasmid, untreated (without LPS); immunoprecipitated with anti-β-catenin antibody at 4 °C overnight, magnetic protein A/G beads; immunoblot for FOXO3
[2] = biological target: β-catenin-4A mutant (S33/S37/T41/S45) (UniProt P35222); assay: co-IP; nuclear fraction of HK-2 cells transfected with β-catenin-4A mutant plasmid, treated with LPS (100 ng/µl) for 30 min; immunoprecipitated with anti-β-catenin antibody at 4 °C overnight, magnetic protein A/G beads; immunoblot for FOXO3

binding [2]: binds
Substance: Forkhead box O3 (FOXO3) (from UniProt O43524 1-673)
binding [1]: no binding (condition: untreated cells (without LPS))
